# Test results: the supplement of paper PMC8728848
# This is one part of the list.
# Key:
# Test in all cases: glycan array binding signal (z-score within array); higher = stronger binding
# Details in all cases: glycan notation: IUPAC condensed, linker removed
# Neu5Ac(a2-3)Gal(b1-4)Glc = target: Neu5Ac(a2-3)Gal(b1-4)Glc
# Procedure, shortened: (§1)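 Columns mapping to the same glycan were averaged after glycan names were converted to IUPAC-condensed notation. The data come from 3228 arrays in the Consortium for Functional Glycomics database, limited to those with an available protein sequence. Binding is reported as a within-array Z-score averaged across arrays of one protein sequence and across linkers.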
# [1] = target: Neu5Ac(a2-3)Gal(b1-4)GlcNAc
# Procedure, shortened: as §1
# [2] = target: Neu5Ac(a2-3)Gal(b1-4)GlcNAc(b1-2)Man
# Procedure, shortened: as §1
# [3] = target: Neu5Ac(a2-3)Gal(b1-4)GlcNAc(b1-2)Man(a1-3)[GlcNAc(b1-2)Man(b1-4)GlcNAc(b1-2)Man(a1-6)]Man(b1-4)GlcNAc(b1-4)GlcNAc
# Procedure, shortened: as §1
# [4] = target: Neu5Ac(a2-3)Gal(b1-4)GlcNAc(b1-2)Man(a1-3)[GlcNAc(b1-4)][Neu5Ac(a2-3)Gal(b1-4)GlcNAc(b1-2)Man(a1-6)]Man(b1-4)GlcNAc(b1-4)GlcNAc
# Procedure, shortened: as §1
# [5] = target: Neu5Ac(a2-3)Gal(b1-4)GlcNAc(b1-2)Man(a1-3)[Neu5Ac(a2-3)Gal(b1-4)GlcNAc(b1-2)Man(a1-6)]Man(b1-4)GlcNAc(b1-4)GlcNAc
# Procedure, shortened: as §1
# [6] = target: Neu5Ac(a2-3)Gal(b1-4)GlcNAc(b1-2)Man(a1-3)[Neu5Ac(a2-3)Gal(b1-4)GlcNAc(b1-2)Man(a1-6)]Man(b1-4)GlcNAc(b1-4)[Fuc(a1-6)]GlcNAc
# Procedure, shortened: as §1
# [7] = target: Neu5Ac(a2-3)Gal(b1-4)GlcNAc(b1-2)Man(a1-3)[Neu5Ac(a2-6)Gal(b1-4)GlcNAc(b1-2)Man(a1-6)]Man(b1-4)GlcNAc(b1-4)GlcNAc
# Procedure, shortened: as §1
# [8] = target: Neu5Ac(a2-3)Gal(b1-4)GlcNAc(b1-2)[Neu5Ac(a2-3)Gal(b1-4)GlcNAc(b1-4)]Man(a1-3)[GlcNAc(b1-4)][Neu5Ac(a2-3)Gal(b1-4)GlcNAc(b1-2)[Neu5Ac(a2-3)Gal(b1-4)GlcNAc(b1-6)]Man(a1-6)]Man(b1-4)GlcNAc(b1-4)GlcNAc
# Procedure, shortened: as §1
# [9] = target: Neu5Ac(a2-3)Gal(b1-4)GlcNAc(b1-2)[Neu5Ac(a2-3)Gal(b1-4)GlcNAc(b1-4)]Man(a1-3)[GlcNAc(b1-4)][Neu5Ac(a2-3)Gal(b1-4)GlcNAc(b1-4)Man(a1-6)]Man(b1-4)GlcNAc(b1-4)GlcNAc
# Procedure, shortened: as §1
# [10] = target: Neu5Ac(a2-3)Gal(b1-4)GlcNAc(b1-2)[Neu5Ac(a2-3)Gal(b1-4)GlcNAc(b1-6)]Man(a1-6)[Neu5Ac(a2-3)Gal(b1-4)GlcNAc(b1-2)Man(a1-3)]Man(b1-4)GlcNAc(b1-4)GlcNAc
# Procedure, shortened: as §1
# [11] = target: Neu5Ac(a2-3)Gal(b1-4)GlcNAc(b1-2)[Neu5Ac(a2-3)Gal(b1-4)GlcNAc(b1-6)]Man(a1-6)[Neu5Ac(a2-3)Gal(b1-4)GlcNAc(b1-2)Man(a1-3)][GlcNAc(b1-4)]Man(b1-4)GlcNAc(b1-4)GlcNAc
# Procedure, shortened: as §1
# [12] = target: Neu5Ac(a2-3)Gal(b1-4)GlcNAc(b1-3)Gal
# Procedure, shortened: as §1
# [13] = target: Neu5Ac(a2-3)Gal(b1-4)GlcNAc(b1-3)Gal(b1-3)GlcNAc
# Procedure, shortened: as §1
# [14] = target: Neu5Ac(a2-3)Gal(b1-4)GlcNAc(b1-3)Gal(b1-4)GlcNAc
# Procedure, shortened: as §1
# [15] = target: Neu5Ac(a2-3)Gal(b1-4)GlcNAc(b1-3)Gal(b1-4)GlcNAc(b1-2)Man(a1-3)[Neu5Ac(a2-3)Gal(b1-4)GlcNAc(b1-3)Gal(b1-4)GlcNAc(b1-2)Man(a1-6)]Man(b1-4)GlcNAc(b1-4)GlcNAc
# Procedure, shortened: as §1
# [16] = target: Neu5Ac(a2-3)Gal(b1-4)GlcNAc(b1-3)Gal(b1-4)GlcNAc(b1-3)Gal(b1-4)GlcNAc
# Procedure, shortened: as §1
# [17] = target: Neu5Ac(a2-3)Gal(b1-4)GlcNAc(b1-3)Gal(b1-4)GlcNAc(b1-3)Gal(b1-4)GlcNAc(b1-2)Man(a1-3)[Neu5Ac(a2-3)Gal(b1-4)GlcNAc(b1-3)Gal(b1-4)GlcNAc(b1-3)Gal(b1-4)GlcNAc(b1-2)Man(a1-6)]GalNAc
# Procedure, shortened: as §1
# [18] = target: Neu5Ac(a2-3)Gal(b1-4)GlcNAc(b1-3)Gal(b1-4)GlcNAc(b1-3)GalNAc
# Procedure, shortened: as §1
# [19] = target: Neu5Ac(a2-3)Gal(b1-4)GlcNAc(b1-3)Gal(b1-4)GlcNAc(b1-3)[Neu5Ac(a2-3)Gal(b1-4)GlcNAc(b1-3)Gal(b1-4)GlcNAc(b1-6)]GalNAc
# Procedure, shortened: as §1
# [20] = target: Neu5Ac(a2-3)Gal(b1-4)GlcNAc(b1-3)Gal(b1-4)GlcNAc(b1-6)[Gal(b1-3)]GalNAc
# Procedure, shortened: as §1
# [21] = target: Neu5Ac(a2-3)Gal(b1-4)GlcNAc(b1-3)Gal(b1-4)[Fuc(a1-3)]GlcNAc
# Procedure, shortened: as §1
# [22] = target: Neu5Ac(a2-3)Gal(b1-4)GlcNAc(b1-3)GalNAc
# Procedure, shortened: as §1
# [23] = target: Neu5Ac(a2-3)Gal(b1-4)GlcNAc(b1-3)[Neu5Ac(a2-3)Gal(b1-4)GlcNAc(b1-6)]GalNAc
# Procedure, shortened: as §1
# [24] = target: Neu5Ac(a2-3)Gal(b1-4)GlcNAc(b1-6)GalNAc
# Procedure, shortened: as §1
# [25] = target: Neu5Ac(a2-3)Gal(b1-4)GlcNAc(b1-6)[Gal(b1-3)]GalNAc
# Procedure, shortened: as §1
# [26] = target: Neu5Ac(a2-3)Gal(b1-4)GlcNAc(b1-6)[Neu5Ac(a2-3)Gal(b1-3)]GalNAc
# Procedure, shortened: as §1
# [27] = target: Neu5Ac(a2-3)Gal(b1-4)GlcNAc6S
# Procedure, shortened: as §1
# [28] = target: Neu5Ac(a2-3)Gal(b1-4)[Fuc(a1-3)]GlcNAc
# Procedure, shortened: as §1
# [29] = target: Neu5Ac(a2-3)Gal(b1-4)[Fuc(a1-3)]GlcNAc(b1-2)Man
# Procedure, shortened: as §1
# [30] = target: Neu5Ac(a2-3)Gal(b1-4)[Fuc(a1-3)]GlcNAc(b1-3)Gal
# Procedure, shortened: as §1
# [31] = target: Neu5Ac(a2-3)Gal(b1-4)[Fuc(a1-3)]GlcNAc(b1-3)Gal(b1-4)GlcNAc
# Procedure, shortened: as §1
# [32] = target: Neu5Ac(a2-3)Gal(b1-4)[Fuc(a1-3)]GlcNAc(b1-3)Gal(b1-4)[Fuc(a1-3)]GlcNAc(b1-3)Gal(b1-4)[Fuc(a1-3)]GlcNAc
# Procedure, shortened: as §1
# [33] = target: Neu5Ac(a2-3)Gal(b1-4)[Fuc(a1-3)]GlcNAc(b1-3)GalNAc
# Procedure, shortened: as §1
# [34] = target: Neu5Ac(a2-3)Gal(b1-4)[Fuc(a1-3)]GlcNAc(b1-6)[Gal(b1-3)]GalNAc
# Procedure, shortened: as §1
# [35] = target: Neu5Ac(a2-3)Gal(b1-4)[Fuc(a1-3)]GlcNAc(b1-6)[Neu5Ac(a2-3)Gal(b1-3)]GalNAc
# Procedure, shortened: as §1
# [36] = target: Neu5Ac(a2-3)Gal(b1-4)[Fuc(a1-3)]GlcNAc6S
# Procedure, shortened: as §1
# [37] = target: Neu5Ac(a2-3)Gal6S(b1-4)GlcNAc
# Procedure, shortened: as §1
# [38] = target: Neu5Ac(a2-3)Gal6S(b1-4)[Fuc(a1-3)]GlcNAc
# Procedure, shortened: as §1
# Neu5Ac(a2-3)GalNAc = target: Neu5Ac(a2-3)GalNAc
# Procedure, shortened: as §1
# [39] = target: Neu5Ac(a2-3)GalNAc(b1-4)GlcNAc
# Procedure, shortened: as §1
# [40] = target: Neu5Ac(a2-3)[GalNAc(b1-4)]Gal(b1-4)Glc
# Procedure, shortened: as §1
# [41] = target: Neu5Ac(a2-3)[GalNAc(b1-4)]Gal(b1-4)GlcNAc
# Procedure, shortened: as §1
# [42] = target: Neu5Ac(a2-3)[GalNAc(b1-4)]Gal(b1-4)GlcNAc(b1-3)GalNAc
# Procedure, shortened: as §1
# [43] = target: Neu5Ac(a2-3)[Neu5Ac(a2-6)]GalNAc
# Procedure, shortened: as §1
binder,measurement,setting,value
"LlpA1 (Pseudomonas fluorescens), Q4KHC3 (protein) MGSSHHHHHHSSGLVPRGSHMAWIRYDFTDNGSSVLPARYYMAPNQYLQSPNKRFKLLFQADGNLALYDGAQLAWVADQNTPFTNVSKGNKKDPMMVFMNYGFVLDDPLRGRIWSTTPSDPTMGSREDASLRAFTQVQDDGNIVTVDTIPHWYAPNGRVFTPAVGAAMIIGGTTELVPGQFYSAGEHSLVFQGDGNLVVYGPNSSVIWATYTQNKGGVRCVMQEDGNLVIYAANNGVVWQSGTGGHPGATIRLQANGSFTIVTERPVWARFGYTPTIKPPRVFYPDHKWKTGSYTWNNVF",glycan array binding signal (z-score),Neu5Ac(a2-3)Gal(b1-4)Glc,-0.026
same,glycan array binding signal (z-score),[1],-0.313
same,glycan array binding signal (z-score),[2],0.311
same,glycan array binding signal (z-score),[3],-1.78
same,glycan array binding signal (z-score),[4],-0.737
same,glycan array binding signal (z-score),[5],0.192
same,glycan array binding signal (z-score),[6],-0.571
same,glycan array binding signal (z-score),[7],0.144
same,glycan array binding signal (z-score),[8],-0.283
same,glycan array binding signal (z-score),[9],-0.737
same,glycan array binding signal (z-score),[10],0.102
same,glycan array binding signal (z-score),[11],0.052
same,glycan array binding signal (z-score),[12],-0.275
same,glycan array binding signal (z-score),[13],-0.396
same,glycan array binding signal (z-score),[14],0.295
same,glycan array binding signal (z-score),[15],0.673
same,glycan array binding signal (z-score),[16],-0.591
same,glycan array binding signal (z-score),[17],2.75
same,glycan array binding signal (z-score),[18],-0.569
same,glycan array binding signal (z-score),[19],0.564
same,glycan array binding signal (z-score),[20],0.659
same,glycan array binding signal (z-score),[21],-0.207
same,glycan array binding signal (z-score),[22],-0.31
same,glycan array binding signal (z-score),[23],-0.316
same,glycan array binding signal (z-score),[24],0.357
same,glycan array binding signal (z-score),[25],0.173
same,glycan array binding signal (z-score),[26],-0.232
same,glycan array binding signal (z-score),[27],-0.206
same,glycan array binding signal (z-score),[28],-0.498
same,glycan array binding signal (z-score),[29],-0.25
same,glycan array binding signal (z-score),[30],-0.646
same,glycan array binding signal (z-score),[31],-0.021
same,glycan array binding signal (z-score),[32],0.285
same,glycan array binding signal (z-score),[33],0.206
same,glycan array binding signal (z-score),[34],0.034
same,glycan array binding signal (z-score),[35],2.08
same,glycan array binding signal (z-score),[36],0.043
same,glycan array binding signal (z-score),[37],0.343
same,glycan array binding signal (z-score),[38],-0.706
same,glycan array binding signal (z-score),Neu5Ac(a2-3)GalNAc,-0.179
same,glycan array binding signal (z-score),[39],-0.283
same,glycan array binding signal (z-score),[40],-0.67
same,glycan array binding signal (z-score),[41],-0.711
same,glycan array binding signal (z-score),[42],-0.576
same,glycan array binding signal (z-score),[43],-0.786

# An excerpt from further up, as a working copy:
binder,measurement,setting,value
"LlpA1 (Pseudomonas fluorescens), Q4KHC3 (protein) MGSSHHHHHHSSGLVPRGSHMAWIRYDFTDNGSSVLPARYYMAPNQYLQSPNKRFKLLFQADGNLALYDGAQLAWVADQNTPFTNVSKGNKKDPMMVFMNYGFVLDDPLRGRIWSTTPSDPTMGSREDASLRAFTQVQDDGNIVTVDTIPHWYAPNGRVFTPAVGAAMIIGGTTELVPGQFYSAGEHSLVFQGDGNLVVYGPNSSVIWATYTQNKGGVRCVMQEDGNLVIYAANNGVVWQSGTGGHPGATIRLQANGSFTIVTERPVWARFGYTPTIKPPRVFYPDHKWKTGSYTWNNVF",glycan array binding signal (z-score),[17],2.75
same,glycan array binding signal (z-score),[18],-0.569
same,glycan array binding signal (z-score),[19],0.564
same,glycan array binding signal (z-score),[20],0.659
same,glycan array binding signal (z-score),[21],-0.207
same,glycan array binding signal (z-score),[22],-0.31
same,glycan array binding signal (z-score),[23],-0.316
same,glycan array binding signal (z-score),[24],0.357
same,glycan array binding signal (z-score),[25],0.173
same,glycan array binding signal (z-score),[26],-0.232
same,glycan array binding signal (z-score),[27],-0.206
same,glycan array binding signal (z-score),[28],-0.498
